Here are results for 14 molecules from PubChem BioAssay AID220 (DTP/NCI, 2004).

The list is a part of this screen's results and no random one: it gathers tests that were run many times, whatever their T/C, doses with no T/C, and many T/C values between a quarter and a half above the control. Other doses and runs of a compound stand elsewhere. T/C is the treated group as % of the vehicle group. Schedules are NCI's codes, taken here to give the interval after Q, in days (D) or hours (H), and the number of doses after X. Some values lie below zero, which means that the treated tumours became smaller. Some T/C values are followed by the survivors on the day toxicity was checked, most often the fifth; without a count, all were alive then. Some entries give survivors of the animals treated and no T/C: the source holds a T/C of zero for them, seemingly a mark for toxic or unscored doses. Counts of survivors are from the toxicity check (mostly the fifth day) where no day follows; animals may have died later. Some entries were tested several times; the results are listed from low to high.

For the assay, the system named is CD8F1 mice, subcutaneous mammary adenocarcinoma, T/C%. The assay is described as follows: NCI In Vivo Anticancer Drug Screen. Data for tumor model Mammary Adenocarcinoma CD8F1 (subcutaneous) in CD8F1. The note with it: higher T/C = larger tumour. The gist of the method:
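Compound-treated versus vehicle-treated mice with transplantable tumors; survival or tumor size compared as T/C.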

Setting [1] is: T/C endpoint: median tumor weight change, dose: 2000.0 mg/kg/injection, schedule: Q01DX001 (ip), vehicle: saline with Tween-80.
[2] abbreviates: T/C endpoint: median tumor weight change, dose: 500.0 mg/kg/injection, schedule: Q01DX001 (ip), vehicle: Klucel (hydroxypropylcellulose) (HPC).

Regarding `O=C(O)CC(NC(=O)CP(=O)(O)O)C(=O)O.[NH-]C1CCCCC1[NH-].[Pt+2]` (stereo not drawn), the T/C was 75 % of control (T/C endpoint: median tumor weight change, dose: 25.0 mg/kg/injection, schedule: Q01DX001 (ip), vehicle: dextrose, evaluated on day 26); 148 % of control (T/C endpoint: median tumor weight change, dose: 25.0 mg/kg/injection, schedule: Q01DX001 (ip), vehicle: dextrose, evaluated on day 29); 41 % of control (T/C endpoint: median tumor weight change, dose: 25.0 mg/kg/injection, schedule: Q01DX001 (ip), vehicle: dextrose, evaluated on day 32); 52 % of control (T/C endpoint: median tumor weight change, dose: 25.0 mg/kg/injection, schedule: Q01DX001 (ip), vehicle: dextrose, evaluated on day 33); 24 % of control (T/C endpoint: median tumor weight change, dose: 50.0 mg/kg/injection, schedule: Q01DX001 (ip), vehicle: dextrose, evaluated on day 26); 89 % of control (T/C endpoint: median tumor weight change, dose: 50.0 mg/kg/injection, schedule: Q01DX001 (ip), vehicle: dextrose, evaluated on day 29). Also, the T/C is 36 % of control [9 of 10 alive on day 32] (T/C endpoint: median tumor weight change, dose: 50.0 mg/kg/injection, schedule: Q01DX001 (ip), vehicle: dextrose, evaluated on day 32); 37 % of control (T/C endpoint: median tumor weight change, dose: 50.0 mg/kg/injection, schedule: Q01DX001 (ip), vehicle: dextrose, evaluated on day 33); -23 % of control [9 of 10 alive on day 26] (T/C endpoint: median tumor weight change, dose: 100.0 mg/kg/injection, schedule: Q01DX001 (ip), vehicle: dextrose, evaluated on day 26); 5 % of control [7 of 10 alive on day 29] (T/C endpoint: median tumor weight change, dose: 100.0 mg/kg/injection, schedule: Q01DX001 (ip), vehicle: dextrose, evaluated on day 29); -2 % of control (T/C endpoint: median tumor weight change, dose: 100.0 mg/kg/injection, schedule: Q01DX001 (ip), vehicle: dextrose, evaluated on day 33). Also, the survivor count reads like this: (T/C endpoint: median tumor weight change, dose: 100.0 mg/kg/injection, schedule: Q01DX001 (ip), vehicle: dextrose) 3 of 10 on day 32; (T/C endpoint: median tumor weight change, dose: 200.0 mg/kg/injection, schedule: Q01DX001 (ip), vehicle: dextrose) 0 of 10 on day 26, 0 of 10 on day 29, 0 of 10 on day 32, 1 of 10 on day 33; (T/C endpoint: median tumor weight change, dose: 400.0 mg/kg/injection, schedule: Q01DX001 (ip), vehicle: dextrose) 0 of 10 on day 33.
As for `CCN1/C(=C/C=C/C=C\C=C\c2sc3ccc4ccccc4c3[n+]2CC)Sc2ccc3ccccc3c21`, where the note is “T/C endpoint: median tumor weight change, dose: 200.0 mg/kg/injection, schedule: Q01DX001 (ip), vehicle: saline with Tween-80”, the survivor count is on record as 2 of 10 on day 29.
For `CCCCOCN(COCCCC)C(C)Cc1ccccc1` (stereo not drawn), the T/C (T/C endpoint: median tumor weight change, dose: 500.0 mg/kg/injection, schedule: Q01DX001 (ip), vehicle: saline with Tween-80, evaluated on day 31) is 130 % of control. In addition, the survivor count under setting [1] was 0 of 10 on day 26.
For the molecule `CN(C)N=Nc1cccc(C(N)=O)c1`, under “T/C endpoint: median tumor weight (est.), dose: 20.0 mg/kg/injection, schedule: Q07DX005 (ip), vehicle: Klucel (hydroxypropylcellulose) (HPC), evaluated on day 30”, the T/C is 130 % of control [9 of 10 alive on day 30]. Further, the survivor count (T/C endpoint: median tumor weight (est.), dose: 160.0 mg/kg/injection, schedule: Q07DX005 (ip), vehicle: Klucel (hydroxypropylcellulose) (HPC)) was 1 of 10 on day 30 and the survivor count (T/C endpoint: median tumor weight (est.), dose: 320.0 mg/kg/injection, schedule: Q07DX005 (ip), vehicle: Klucel (hydroxypropylcellulose) (HPC)) is listed as 0 of 10 on day 30.
`O=C1[C@H]2CCC[C@H]2[C@H]2CCC[C@@H]12`: where the note is “T/C endpoint: median tumor weight change, dose: 1000.0 mg/kg/injection, schedule: Q01DX001 (ip), vehicle: saline with Tween-80”, the survivor count is 1 of 10 on day 28.
`CC(C)NCC(O)COc1cccc2ccccc12` (stereo not drawn): the T/C (T/C endpoint: mean tumor weight, dose: 16.0 mg/kg/injection, schedule: Q07DX007 (ip), vehicle: Klucel (hydroxypropylcellulose) (HPC), evaluated on day 46) was 127 % of control [9 of 10 alive].
As to `CC[PH+](CC)CC[S-].CC[PH+](CC)CC[S-].[Au+].[Au+]`, where the note is “T/C endpoint: median tumor weight change, dose: 25.0 mg/kg/injection, schedule: Q01DX001 (ip), vehicle: Klucel (hydroxypropylcellulose) (HPC), evaluated on day 32”, the T/C was 135 % of control. Besides, the survivor count by setting is: (T/C endpoint: median tumor weight change, dose: 200.0 mg/kg/injection, schedule: Q01DX001 (ip), vehicle: Klucel (hydroxypropylcellulose) (HPC)) 0 of 10 on day 41; (T/C endpoint: median tumor weight change, dose: 400.0 mg/kg/injection, schedule: Q01DX001 (ip), vehicle: Klucel (hydroxypropylcellulose) (HPC)) 0 of 10 on day 32 and 0 of 10 on day 41.
`Clc1ccc(C(c2ccccc2Cl)C(Cl)Cl)cc1` (stereo not drawn): the T/C (T/C endpoint: median tumor weight (est.), dose: 200.0 mg/kg/injection, schedule: Q07DX005 (ip), vehicle: Klucel (hydroxypropylcellulose) (HPC), evaluated on day 30) was 147 % of control and the T/C (T/C endpoint: median tumor weight (est.), dose: 400.0 mg/kg/injection, schedule: Q07DX005 (ip), vehicle: Klucel (hydroxypropylcellulose) (HPC), evaluated on day 30) is 132 % of control.
In the case of `NC(=O)/C=C/c1c[nH]c2nccnc12`, the survivor count (T/C endpoint: median tumor weight change, dose: 250.0 mg/kg/injection, schedule: Q01DX001 (ip), vehicle: water) was 4 of 10 on day 35.
Regarding `CC(=O)Oc1c[nH]c(=O)[nH]c1=O`, the survivor count under setting [1] was 4 of 10 on day 36.
For the molecule `COc1ccc(Cl)[n+]([O-])n1`, the survivor count (T/C endpoint: median tumor weight change, dose: 125.0 mg/kg/injection, schedule: Q01DX001 (ip), vehicle: Klucel (hydroxypropylcellulose) (HPC)) is 4 of 10 on day 33; the survivor count (T/C endpoint: median tumor weight change, dose: 250.0 mg/kg/injection, schedule: Q01DX001 (ip), vehicle: Klucel (hydroxypropylcellulose) (HPC)) was 0 of 10 on day 33 and 0 of 10 on day 34; the survivor count under setting [2] was 0 of 10 on day 33 and 0 of 10 on day 34.
Consider `O=C(O)C(O)C(O)C1[O][Sb][O]C1C(=O)O` (stereo not drawn), for which the survivor count (T/C endpoint: median tumor weight change, dose: 125.0 mg/kg/injection, schedule: Q01DX001 (ip), vehicle: saline) is 4 of 10 on day 27; the survivor count (T/C endpoint: median tumor weight change, dose: 250.0 mg/kg/injection, schedule: Q01DX001 (ip), vehicle: saline) was 0 of 10 on day 27; the survivor count (T/C endpoint: median tumor weight change, dose: 500.0 mg/kg/injection, schedule: Q01DX001 (ip), vehicle: saline) is listed as 0 of 10 on day 27.
Consider `CC(C)NC(=O)N(CCCCBr)N=O`, for which the survivor count is, setting by setting: under setting [2], 2 of 10 on day 30; (T/C endpoint: median tumor weight change, dose: 1000.0 mg/kg/injection, schedule: Q01DX001 (ip), vehicle: Klucel (hydroxypropylcellulose) (HPC)) 0 of 10 on day 28 and 0 of 10 on day 30.
Consider `Nc1cc2c3c(cccc3c1)C(=O)N(CCN1CCCC1)C2=O`, for which the T/C was 67 % of control (T/C endpoint: median tumor weight change, dose: 31.25 mg/kg/injection, schedule: Q01DX001 (ip), vehicle: saline with Tween-80, evaluated on day 28); 86 % of control (T/C endpoint: median tumor weight change, dose: 31.25 mg/kg/injection, schedule: Q01DX001 (ip), vehicle: saline with Tween-80, evaluated on day 29); 56 % of control [9 of 10 alive on day 30] (T/C endpoint: median tumor weight change, dose: 31.25 mg/kg/injection, schedule: Q01DX001 (ip), vehicle: saline with Tween-80, evaluated on day 30); 106 % of control (T/C endpoint: median tumor weight change, dose: 31.25 mg/kg/injection, schedule: Q01DX001 (ip), vehicle: saline with Tween-80, evaluated on day 35); 56 % of control (T/C endpoint: median tumor weight change, dose: 62.5 mg/kg/injection, schedule: Q01DX001 (ip), vehicle: saline with Tween-80, evaluated on day 28); 92 % of control (T/C endpoint: median tumor weight change, dose: 62.5 mg/kg/injection, schedule: Q01DX001 (ip), vehicle: saline with Tween-80, evaluated on day 29). In addition, the T/C by setting is: (T/C endpoint: median tumor weight change, dose: 62.5 mg/kg/injection, schedule: Q01DX001 (ip), vehicle: saline with Tween-80, evaluated on day 30) 12 % of control; (T/C endpoint: median tumor weight change, dose: 62.5 mg/kg/injection, schedule: Q01DX001 (ip), vehicle: saline with Tween-80, evaluated on day 35) 74 % of control; (T/C endpoint: median tumor weight change, dose: 125.0 mg/kg/injection, schedule: Q01DX001 (ip), vehicle: saline with Tween-80, evaluated on day 28) 29 % of control; (T/C endpoint: median tumor weight change, dose: 125.0 mg/kg/injection, schedule: Q01DX001 (ip), vehicle: saline with Tween-80, evaluated on day 29) 41 % of control; (T/C endpoint: median tumor weight change, dose: 125.0 mg/kg/injection, schedule: Q01DX001 (ip), vehicle: saline with Tween-80, evaluated on day 30) 20 % of control [9 of 10 alive on day 30]; (T/C endpoint: median tumor weight change, dose: 125.0 mg/kg/injection, schedule: Q01DX001 (ip), vehicle: saline with Tween-80, evaluated on day 35) 43 % of control [9 of 10 alive on day 35]. The T/C (T/C endpoint: median tumor weight change, dose: 250.0 mg/kg/injection, schedule: Q01DX001 (ip), vehicle: saline with Tween-80, evaluated on day 28) is 8 % of control [7 of 10 alive on day 28] and the T/C (T/C endpoint: median tumor weight change, dose: 250.0 mg/kg/injection, schedule: Q01DX001 (ip), vehicle: saline with Tween-80, evaluated on day 35) is 35 % of control [7 of 10 alive on day 35]. Moreover, the survivor count was 2 of 10 on day 30 and 3 of 10 on day 29 (T/C endpoint: median tumor weight change, dose: 250.0 mg/kg/injection, schedule: Q01DX001 (ip), vehicle: saline with Tween-80); 0 of 10 on day 28, 0 of 10 on day 29, 0 of 10 on day 30 (T/C endpoint: median tumor weight change, dose: 500.0 mg/kg/injection, schedule: Q01DX001 (ip), vehicle: saline with Tween-80).
